Like-named read-outs stand apart in the source and are kept apart here. No constants are given. Whether binding was seen depends on the method and setting. In cells and extracts the contact can be indirect. Some binding calls cover weakened binding; strength is not graded here.
Legend:
[1] = target: cell division cycle 27 (CDC27) (human (endogenous in MM.1S)) (UniProt P30260); assay: co-IP; anti-CDC27 antibody (rabbit IgG as isotype control) on rProtein A/G beads; whole-cell lysates of MM.1S cells treated with vehicle or OSMI-1; lysates pre-cleared with unprocessed beads; detection by blot
[2] = target: cell division cycle 27 (CDC27) (human (endogenous in MM.1S)) (UniProt P30260); assay: as above; remark: listed apart in the source

binding [1]	binding [2]	Molecule
binds	–	p62 (an autophagy-related protein) (from UniProt Q13501 1-440)
–	binds	O-GlcNAcylation transferase (OGT) (enzyme, UniProt O15294 1-1046) MASSVGNVADSTEPTKRMLSFQGLAELAHREYQAGDFEAAERHCMQLWRQEPDNTGVLLLLSSIHFQCRRLDRSAHFSTLAIKQNPLLAEAYSNLGNVYKERGQLQEAIEHYRHALRLKPDFIDGYINLAAALVAAGDMEGAVQAYVSALQYNPDLYCVRSDLGNLLKALGRLEEAKACYLKAIETQPNFAVAWSNLGCVFNAQGEIWLAIHHFEKAVTLDPNFLDAYINLGNVLKEARIFDRAVAAYLRALSLSPNHAVVHGNLACVYYEQGLIDLAIDTYRRAIELQPHFPDAYCNLANALKEKGSVAEAEDCYNTALRLCPTHADSLNNLANIKREQGNIEEAVRLYRKALEVFPEFAAAHSNLASVLQQQGKLQEALMHYKEAIRISPTFADAYSNMGNTLKEMQDVQGALQCYTRAIQINPAFADAHSNLASIHKDSGNIPEAIASYRTALKLKPDFPDAYCNLAHCLQIVCDWTDYDERMKKLVSIVADQLEKNRLPSVHPHHSMLYPLSHGFRKAIAERHGNLCLDKINVLHKPPYEHPKDLKLSDGRLRVGYVSSDFGNHPTSHLMQSIPGMHNPDKFEVFCYALSPDDGTNFRVKVMAEANHFIDLSQIPCNGKAADRIHQDGIHILVNMNGYTKGARNELFALRPAPIQAMWLGYPGTSGALFMDYIITDQETSPAEVAEQYSEKLAYMPHTFFIGDHANMFPHLKKKAVIDFKSNGHIYDNRIVLNGIDLKAFLDSLPDVKIVKMKCPDGGDNADSSNTALNMPVIPMNTIAEAVIEMINRGQIQITINGFSISNGLATTQINNKAATGEEVPRTIIVTTRSQYGLPEDAIVYCNFNQLYKIDPSTLQMWANILKRVPNSVLWLLRFPAVGEPNIQQYAQNMGLPQNRIIFSPVAPKEEHVRRGQLADVCLDTPLCNGHTTGMDVLWAGTPMVTMPGETLASRVAASQLTCLGCLELIAKNRQEYEDIAVKLGTDLEYLKKVRGKVWKQRISSPLFNTKQYTMELERLYLQMWEHYAAGNKPDHMIKPVEVTESA
